From patent US20160033528A1, “Methods for Selecting Peptides that Bind to Disease Specific Antibodies, Disease Specific Peptides and Uses Thereof” (The Regents of the University of California, priority 2014, published 2016) come the findings set out here.

In the data set the test system is anti-CSE antibodies (serum IgA). As to the kind of experiment: Serum IgA reactivity to CSE peptide in CD and non-CD sera (n=231). The data set is classed as binding, human. As to the method: Directed evolution pooled clone & individual patient single clone reactivity assays. To compare the reactivity of consensus epitopes from each generation, overnight cultures of individual clones within a consensus epitope family (4-5 clones/family) were diluted (1:50) in fresh media and grown until the OD600 was between 0.5 and 0.7. Cultures of each individual Clones were induced for 45 min, and 10^6 cells from each culture were pooled together. Pooled consensus epitope families were assayed for binding to case and control group sera (3 subjects/group) by flow cytometry. […] Cells expressing the eCPX scaffold without a peptide insert were used as a negative (background) control. To measure the reactivity of individual isolated mimotopes with individual patient sera, assays were similarly performed, except that a 1:100 or 1:200 serum dilutions were used for IgA and IgG isotype analysis, respectively. Non-parametric analysis tests including Wilcoxon signed rank test and Spearman's rank correlation coefficient were used to determine statistical significance and correlation values. Significance cutoff was defined as p<0.05.
To determine prevalence of anti-CSE antibodies in CD and control subjects, CD and non-CD sera (n=231) were assessed for reactivity to the CSE peptide: MDVRCRDSFVYQCHVGT (SEQ ID NO: 2). […] To determine if the serum antibody titer against the CSE epitope dissipated after the introduction of a gluten-free diet (GFD), sera from 11 CD cases obtained at time-of-diagnosis or after one year on a GFD were assayed.

In the case of MDVRCRDSFVYQCHVGT [CSE peptide], the sensitivity was determined as 71%, the “sensitivity (reactive CD sera/total CD)” value is recorded as 65/92, the specificity is given as 99% and the “specificity (number/total non-CD as printed)” value is given as 2/139.
